Data as given in patent US20220056137A1.

Molecular target: cyno PD-L1 (cyno)
Experiment: BLI (Octet), antibody on AHC biosensor, cyno PD-L1 as analyte

B1: antibody A15 (antibody, V domains shown)
VH: QLQLQESGPGLVKPSETLSLTCTVSGGSFNRSNYYWGWIRQPPGKGLEWIGSIYYSGSTYYNPSLKSRLTISADTSKTQFSLKRNSVTAADTAVYYCAREDIVVVPAAQPPHFYFGMDVWGQGTTVTVSS
VL: DIQMTQSPSSLSASVGDRVTITCRASQGIRNDLGWYQQKPGKAPKRLIYAASSLQSGVPSRFSGSGSGTEFTLTISSLQPEDFATYYCLQHDSYPLTFGGGTKVEIK
In the case of B1, the binding is reported as “no binding (tested: 300 nM)”.

No constants are given. Whether binding was seen depends on the method and setting.
